Measurements as given in PMC10180636.
No constants are given. Whether binding was seen depends on the method and setting. In cells and extracts the contact can be indirect. These calls come from enrichment with a bait or labelling near it, and not all partners need be listed.

Chains of the proteins cited; added tags and fusions are not shown.
UniProt Q8IBZ0: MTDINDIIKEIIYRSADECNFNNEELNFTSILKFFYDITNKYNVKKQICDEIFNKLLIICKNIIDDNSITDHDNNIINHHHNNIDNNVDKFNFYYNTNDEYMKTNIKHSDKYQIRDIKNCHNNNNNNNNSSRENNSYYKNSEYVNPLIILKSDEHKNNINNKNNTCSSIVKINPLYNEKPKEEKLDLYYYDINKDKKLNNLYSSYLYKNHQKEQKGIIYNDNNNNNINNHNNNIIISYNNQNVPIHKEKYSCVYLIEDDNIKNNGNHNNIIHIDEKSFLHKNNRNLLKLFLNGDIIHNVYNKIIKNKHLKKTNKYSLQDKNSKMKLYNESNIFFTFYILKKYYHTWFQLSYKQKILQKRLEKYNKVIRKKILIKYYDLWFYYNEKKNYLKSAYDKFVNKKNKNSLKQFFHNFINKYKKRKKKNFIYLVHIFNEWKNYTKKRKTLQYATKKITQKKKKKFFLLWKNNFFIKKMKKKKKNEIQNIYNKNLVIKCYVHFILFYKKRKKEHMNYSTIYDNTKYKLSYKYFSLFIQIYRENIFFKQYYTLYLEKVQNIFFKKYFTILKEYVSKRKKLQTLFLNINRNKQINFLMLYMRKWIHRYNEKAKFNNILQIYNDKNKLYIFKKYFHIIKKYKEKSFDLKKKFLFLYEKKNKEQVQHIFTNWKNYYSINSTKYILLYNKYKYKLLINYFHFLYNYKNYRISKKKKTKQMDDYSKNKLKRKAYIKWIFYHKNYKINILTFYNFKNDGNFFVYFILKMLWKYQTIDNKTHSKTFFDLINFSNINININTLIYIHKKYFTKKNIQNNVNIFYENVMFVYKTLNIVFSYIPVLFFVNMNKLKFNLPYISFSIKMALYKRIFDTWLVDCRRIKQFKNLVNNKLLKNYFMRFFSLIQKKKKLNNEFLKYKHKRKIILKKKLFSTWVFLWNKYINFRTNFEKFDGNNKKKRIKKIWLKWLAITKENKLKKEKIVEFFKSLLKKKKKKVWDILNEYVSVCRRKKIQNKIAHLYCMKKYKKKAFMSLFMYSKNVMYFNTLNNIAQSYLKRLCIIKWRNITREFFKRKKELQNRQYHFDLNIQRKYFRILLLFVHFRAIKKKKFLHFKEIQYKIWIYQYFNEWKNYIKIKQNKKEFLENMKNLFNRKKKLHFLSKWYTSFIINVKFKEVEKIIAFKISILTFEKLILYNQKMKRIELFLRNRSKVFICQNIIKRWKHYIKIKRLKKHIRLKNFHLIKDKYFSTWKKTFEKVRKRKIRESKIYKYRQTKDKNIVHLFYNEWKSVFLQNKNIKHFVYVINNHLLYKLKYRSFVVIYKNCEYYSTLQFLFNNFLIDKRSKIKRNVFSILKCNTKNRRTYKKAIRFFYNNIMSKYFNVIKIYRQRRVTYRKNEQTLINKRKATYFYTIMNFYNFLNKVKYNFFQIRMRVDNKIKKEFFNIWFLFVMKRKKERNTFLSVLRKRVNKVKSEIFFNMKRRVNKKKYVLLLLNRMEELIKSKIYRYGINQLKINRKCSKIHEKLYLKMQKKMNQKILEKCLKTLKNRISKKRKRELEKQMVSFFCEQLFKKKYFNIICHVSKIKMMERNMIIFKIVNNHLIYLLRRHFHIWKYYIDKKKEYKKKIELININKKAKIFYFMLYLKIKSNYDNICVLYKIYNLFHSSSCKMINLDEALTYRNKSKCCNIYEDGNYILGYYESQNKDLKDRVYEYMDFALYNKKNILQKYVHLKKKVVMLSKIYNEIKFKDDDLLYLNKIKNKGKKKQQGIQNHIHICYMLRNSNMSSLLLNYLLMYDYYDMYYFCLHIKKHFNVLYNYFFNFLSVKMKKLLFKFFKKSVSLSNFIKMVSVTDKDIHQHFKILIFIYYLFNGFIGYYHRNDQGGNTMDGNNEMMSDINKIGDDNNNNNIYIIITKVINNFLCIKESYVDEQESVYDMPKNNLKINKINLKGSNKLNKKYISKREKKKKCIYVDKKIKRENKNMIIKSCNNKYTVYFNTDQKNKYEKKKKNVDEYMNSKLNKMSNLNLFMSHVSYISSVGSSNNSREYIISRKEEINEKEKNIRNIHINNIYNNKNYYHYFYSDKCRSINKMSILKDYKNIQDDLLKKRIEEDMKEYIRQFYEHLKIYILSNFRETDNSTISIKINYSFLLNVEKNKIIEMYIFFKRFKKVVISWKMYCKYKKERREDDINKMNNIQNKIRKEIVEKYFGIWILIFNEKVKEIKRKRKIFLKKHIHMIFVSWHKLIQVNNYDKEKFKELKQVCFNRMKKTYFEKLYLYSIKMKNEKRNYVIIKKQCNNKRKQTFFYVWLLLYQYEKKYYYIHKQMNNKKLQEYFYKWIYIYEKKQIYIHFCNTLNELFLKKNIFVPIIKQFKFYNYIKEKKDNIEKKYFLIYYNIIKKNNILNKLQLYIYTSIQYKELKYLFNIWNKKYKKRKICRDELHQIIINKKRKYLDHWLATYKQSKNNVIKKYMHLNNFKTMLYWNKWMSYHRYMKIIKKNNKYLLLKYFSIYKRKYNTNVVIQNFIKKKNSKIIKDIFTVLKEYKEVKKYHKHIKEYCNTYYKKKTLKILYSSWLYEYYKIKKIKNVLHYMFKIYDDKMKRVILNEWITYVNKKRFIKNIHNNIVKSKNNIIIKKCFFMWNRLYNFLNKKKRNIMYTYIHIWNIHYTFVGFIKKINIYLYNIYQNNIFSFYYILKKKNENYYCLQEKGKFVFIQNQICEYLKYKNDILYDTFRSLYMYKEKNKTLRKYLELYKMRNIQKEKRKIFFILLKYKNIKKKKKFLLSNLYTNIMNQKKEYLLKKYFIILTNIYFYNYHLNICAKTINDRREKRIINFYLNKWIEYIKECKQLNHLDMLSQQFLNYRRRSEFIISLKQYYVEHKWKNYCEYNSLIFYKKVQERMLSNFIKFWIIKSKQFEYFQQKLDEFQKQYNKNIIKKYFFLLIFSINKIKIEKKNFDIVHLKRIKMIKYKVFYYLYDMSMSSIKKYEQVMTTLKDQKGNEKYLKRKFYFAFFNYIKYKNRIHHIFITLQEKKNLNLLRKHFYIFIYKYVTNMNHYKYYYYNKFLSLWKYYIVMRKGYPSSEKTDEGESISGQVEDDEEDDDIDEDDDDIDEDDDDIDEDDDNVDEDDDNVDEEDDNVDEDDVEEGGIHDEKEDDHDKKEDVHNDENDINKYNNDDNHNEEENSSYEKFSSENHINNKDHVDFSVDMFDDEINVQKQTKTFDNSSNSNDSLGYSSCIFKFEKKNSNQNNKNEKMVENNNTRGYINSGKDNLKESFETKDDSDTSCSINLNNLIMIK

Biological target: PfCen1-GFP (P. falciparum) (UniProt Q8I272)
Experiment: affinity purification with mass spectrometry; mouse anti-GFP antibody on Protein G Dynabeads, RIPA lysate of PfCen1-GFP schizonts, overnight at 4°C, no protein crosslinking; compared with GFP control pulldowns of a previous study

For “Sfi1-like protein (PfSlp), PF3D7_0710000 (from UniProt Q8IBZ0 1-3267)”, the binding was “binds”.
